Results reported in article PMC11703740, “Disparate molecular mechanisms in cardiac ryanodine receptor channelopathies” (Frontiers in Molecular Biosciences, 2024).
No constants are given. Whether binding was seen depends on the method and setting. In cells and extracts the contact can be indirect. Some entries that bind do so weakly or less than the wild type.

Legend:
[1] = target: HA-tagged RyR2-CT (human RyR2 residues 3529-4967) (human) (UniProt Q92736); assay: co-IP; data not shown; NT^R407I interaction with RyR2-CT compared to WT
[2] = target: NT^R407I (human RyR2 residues 1-906, cMyc-tagged, R407I) (human) (UniProt Q92736); assay: cross-linking; data not shown; tetramerization of NT^R407I compared to WT
[3] = target: HA-tagged RyR2-CT (human RyR2 residues 3529-4967) (human) (UniProt Q92736); assay: co-IP; HEK293 cells co-expressing HA-RyR2-CT and cMyc-RyR2-NT constructs; lysate in 20 mM Tris, 150 mM NaCl, 0.5% CHAPS, pH 7.4; IP with Ab^HA (rabbit ab9110) on Protein A-Sepharose, 4 C, 2 h; blot with Ab^cMyc; non-immune rabbit IgG as negative control
[4] = target: NT^WT (human RyR2 residues 1-906, cMyc-tagged) (human) (UniProt Q92736); assay: cross-linking; data not shown; tetramerization of NT^R407I compared to WT

For “NT^R407I (human RyR2 residues 1-906, cMyc-tagged, R407I) (from UniProt Q92736 1-906) (domain or fragment)”, the binding [1] was “binds” and the binding [2] was “binds”.

B1: NT^WT (human RyR2 residues 1-906, cMyc-tagged) (domain or fragment, UniProt Q92736 1-906, looked up)
chain: MADGGEGEDEIQFLRTDDEVVLQCTATIHKEQQKLCLAAEGFGNRLCFLESTSNSKNVPPDLSICTFVLEQSLSVRALQEMLANTVEKSEGQVDVEKWKFMMKTAQGGGHRTLLYGHAILLRHSYSGMYLCCLSTSRSSTDKLAFDVGLQEDTTGEACWWTIHPASKQRSEGEKVRVGDDLILVSVSSERYLHLSYGNGSLHVDAAFQQTLWSVAPISSGSEAAQGYLIGGDVLRLLHGHMDECLTVPSGEHGEEQRRTVHYEGGAVSVHARSLWRLETLRVAWSGSHIRWGQPFRLRHVTTGKYLSLMEDKNLLLMDKEKADVKSTAFTFRSSKEKLDVGVRKEVDGMGTSEIKYGDSVCYIQHVDTGLWLTYQSVDVKSVRMGSIQRKAIMHHEGHMDDGISLSRSQHEESRTARVIRSTVFLFNRFIRGLDALSKKAKASTVDLPIESVSLSLQDLIGYFHPPDEHLEHEDKQNRLRALKNRQNLFQEEGMINLVLECIDRLHVYSSAAHFADVAGREAGESWKSILNSLYELLAALIRGNRKNCAQFSGSLDWLISRLERLEASSGILEVLHCVLVESPEALNIIKEGHIKSIISLLDKHGRNHKVLDVLCSLCVCHGVAVRSNQHLICDNLLPGRDLLLQTRLVNHVSSMRPNIFLGVSEGSAQYKKWYYELMVDHTEPFVTAEATHLRVGWASTEGYSPYPGGGEEWGGNGVGDDLFSYGFDGLHLWSGCIARTVSSPNQHLLRTDDVISCCLDLSAPSISFRINGQPVQGMFENFNIDGLFFPVVSFSAGIKVRFLLGGRHGEFKFLPPPGYAPCYEAVLPKEKLKVEHSREYKQERTYTRDLLGPTVSLTQAAFTPIPVDTSQIVLPPHLERIREKLAENIHELWVMNKIELGWQYGP
notes: cardiac ryanodine receptor (RyR2), human, N-terminus residues 1-906; also called wild-type RyR2 N-terminus; RyR2-NT; source: HEK293, transiently transfected, in cell homogenate (cross-linking) or CHAPS-solubilized lysate (co-IP)
With B1 the binding [1] was “binds”, the binding [3] was “binds” and the binding [4] was “binds”.

B2: NT^R169L (human RyR2 residues 1-906, cMyc-tagged, R169L) (domain or fragment, UniProt Q92736 1-906, looked up)
chain: MADGGEGEDEIQFLRTDDEVVLQCTATIHKEQQKLCLAAEGFGNRLCFLESTSNSKNVPPDLSICTFVLEQSLSVRALQEMLANTVEKSEGQVDVEKWKFMMKTAQGGGHRTLLYGHAILLRHSYSGMYLCCLSTSRSSTDKLAFDVGLQEDTTGEACWWTIHPASKQLSEGEKVRVGDDLILVSVSSERYLHLSYGNGSLHVDAAFQQTLWSVAPISSGSEAAQGYLIGGDVLRLLHGHMDECLTVPSGEHGEEQRRTVHYEGGAVSVHARSLWRLETLRVAWSGSHIRWGQPFRLRHVTTGKYLSLMEDKNLLLMDKEKADVKSTAFTFRSSKEKLDVGVRKEVDGMGTSEIKYGDSVCYIQHVDTGLWLTYQSVDVKSVRMGSIQRKAIMHHEGHMDDGISLSRSQHEESRTARVIRSTVFLFNRFIRGLDALSKKAKASTVDLPIESVSLSLQDLIGYFHPPDEHLEHEDKQNRLRALKNRQNLFQEEGMINLVLECIDRLHVYSSAAHFADVAGREAGESWKSILNSLYELLAALIRGNRKNCAQFSGSLDWLISRLERLEASSGILEVLHCVLVESPEALNIIKEGHIKSIISLLDKHGRNHKVLDVLCSLCVCHGVAVRSNQHLICDNLLPGRDLLLQTRLVNHVSSMRPNIFLGVSEGSAQYKKWYYELMVDHTEPFVTAEATHLRVGWASTEGYSPYPGGGEEWGGNGVGDDLFSYGFDGLHLWSGCIARTVSSPNQHLLRTDDVISCCLDLSAPSISFRINGQPVQGMFENFNIDGLFFPVVSFSAGIKVRFLLGGRHGEFKFLPPPGYAPCYEAVLPKEKLKVEHSREYKQERTYTRDLLGPTVSLTQAAFTPIPVDTSQIVLPPHLERIREKLAENIHELWVMNKIELGWQYGP
notes: cardiac ryanodine receptor (RyR2), human, N-terminus residues 1-906 with the CPVT mutation R169L; Mutation made by site-directed mutagenesis in the NT^WT plasmid; a variant reported in patients; also called type I variant; source: HEK293, transiently transfected, in cell homogenate (cross-linking) or CHAPS-solubilized lysate (co-IP)
B2 was tested, and the binding [3] was “binds”.

B3: NT^A77T (human RyR2 residues 1-906, cMyc-tagged, A77T) (domain or fragment, UniProt Q92736 1-906, looked up)
chain: MADGGEGEDEIQFLRTDDEVVLQCTATIHKEQQKLCLAAEGFGNRLCFLESTSNSKNVPPDLSICTFVLEQSLSVRTLQEMLANTVEKSEGQVDVEKWKFMMKTAQGGGHRTLLYGHAILLRHSYSGMYLCCLSTSRSSTDKLAFDVGLQEDTTGEACWWTIHPASKQRSEGEKVRVGDDLILVSVSSERYLHLSYGNGSLHVDAAFQQTLWSVAPISSGSEAAQGYLIGGDVLRLLHGHMDECLTVPSGEHGEEQRRTVHYEGGAVSVHARSLWRLETLRVAWSGSHIRWGQPFRLRHVTTGKYLSLMEDKNLLLMDKEKADVKSTAFTFRSSKEKLDVGVRKEVDGMGTSEIKYGDSVCYIQHVDTGLWLTYQSVDVKSVRMGSIQRKAIMHHEGHMDDGISLSRSQHEESRTARVIRSTVFLFNRFIRGLDALSKKAKASTVDLPIESVSLSLQDLIGYFHPPDEHLEHEDKQNRLRALKNRQNLFQEEGMINLVLECIDRLHVYSSAAHFADVAGREAGESWKSILNSLYELLAALIRGNRKNCAQFSGSLDWLISRLERLEASSGILEVLHCVLVESPEALNIIKEGHIKSIISLLDKHGRNHKVLDVLCSLCVCHGVAVRSNQHLICDNLLPGRDLLLQTRLVNHVSSMRPNIFLGVSEGSAQYKKWYYELMVDHTEPFVTAEATHLRVGWASTEGYSPYPGGGEEWGGNGVGDDLFSYGFDGLHLWSGCIARTVSSPNQHLLRTDDVISCCLDLSAPSISFRINGQPVQGMFENFNIDGLFFPVVSFSAGIKVRFLLGGRHGEFKFLPPPGYAPCYEAVLPKEKLKVEHSREYKQERTYTRDLLGPTVSLTQAAFTPIPVDTSQIVLPPHLERIREKLAENIHELWVMNKIELGWQYGP
notes: cardiac ryanodine receptor (RyR2), human, N-terminus residues 1-906 with the patient mutation A77T; Mutation made by site-directed mutagenesis in the NT^WT plasmid; a variant reported in patients; also called type II^inter variant; source: HEK293, transiently transfected, in cell homogenate (cross-linking) or CHAPS-solubilized lysate (co-IP)
For B3, the binding [3] was “binds”.

B4: NT^G357S (human RyR2 residues 1-906, cMyc-tagged, G357S) (domain or fragment, UniProt Q92736 1-906, looked up)
chain: MADGGEGEDEIQFLRTDDEVVLQCTATIHKEQQKLCLAAEGFGNRLCFLESTSNSKNVPPDLSICTFVLEQSLSVRALQEMLANTVEKSEGQVDVEKWKFMMKTAQGGGHRTLLYGHAILLRHSYSGMYLCCLSTSRSSTDKLAFDVGLQEDTTGEACWWTIHPASKQRSEGEKVRVGDDLILVSVSSERYLHLSYGNGSLHVDAAFQQTLWSVAPISSGSEAAQGYLIGGDVLRLLHGHMDECLTVPSGEHGEEQRRTVHYEGGAVSVHARSLWRLETLRVAWSGSHIRWGQPFRLRHVTTGKYLSLMEDKNLLLMDKEKADVKSTAFTFRSSKEKLDVGVRKEVDGMGTSEIKYSDSVCYIQHVDTGLWLTYQSVDVKSVRMGSIQRKAIMHHEGHMDDGISLSRSQHEESRTARVIRSTVFLFNRFIRGLDALSKKAKASTVDLPIESVSLSLQDLIGYFHPPDEHLEHEDKQNRLRALKNRQNLFQEEGMINLVLECIDRLHVYSSAAHFADVAGREAGESWKSILNSLYELLAALIRGNRKNCAQFSGSLDWLISRLERLEASSGILEVLHCVLVESPEALNIIKEGHIKSIISLLDKHGRNHKVLDVLCSLCVCHGVAVRSNQHLICDNLLPGRDLLLQTRLVNHVSSMRPNIFLGVSEGSAQYKKWYYELMVDHTEPFVTAEATHLRVGWASTEGYSPYPGGGEEWGGNGVGDDLFSYGFDGLHLWSGCIARTVSSPNQHLLRTDDVISCCLDLSAPSISFRINGQPVQGMFENFNIDGLFFPVVSFSAGIKVRFLLGGRHGEFKFLPPPGYAPCYEAVLPKEKLKVEHSREYKQERTYTRDLLGPTVSLTQAAFTPIPVDTSQIVLPPHLERIREKLAENIHELWVMNKIELGWQYGP
notes: cardiac ryanodine receptor (RyR2), human, N-terminus residues 1-906 with the CPVT mutation G357S; Mutation made by site-directed mutagenesis in the NT^WT plasmid; a variant reported in patients; also called type II^intra variant; source: HEK293, transiently transfected, in cell homogenate (cross-linking) or CHAPS-solubilized lysate (co-IP)
B4 was tested, and the binding [3] was “binds”.
